In patent publication US20260098866A1 (REMEGEN, published 2026) one finds binding data, which are given here for two molecules.

The target in this assay is T1, telitacicept.
T1 construct: TACI-Fc fusion protein drug; also called Tai ai; TACI-Fc fusion protein
T1 chain: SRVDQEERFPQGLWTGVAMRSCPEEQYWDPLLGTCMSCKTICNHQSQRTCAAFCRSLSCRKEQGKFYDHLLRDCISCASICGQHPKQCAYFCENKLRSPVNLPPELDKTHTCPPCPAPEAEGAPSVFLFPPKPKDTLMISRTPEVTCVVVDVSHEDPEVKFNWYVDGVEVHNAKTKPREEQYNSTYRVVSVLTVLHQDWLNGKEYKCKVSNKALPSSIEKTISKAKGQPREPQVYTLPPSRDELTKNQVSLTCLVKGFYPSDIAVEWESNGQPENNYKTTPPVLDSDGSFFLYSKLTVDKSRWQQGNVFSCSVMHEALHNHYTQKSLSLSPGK
Description: BLI (Octet RH16).

These are yes or no findings as the source states them, for the method shown. Some results given as binding are weak or reduced against the parent protein; the word gives no strength.

B1: antibody 1B11D2 (antibody, mouse IgG1, kappa, V domains shown)
VH: EVQLQQSGPELVKPGASVKISCKTSGYTFTEFSMHWVQQSHGKSLEWIGGINPNHGGSSYNQKFKGKATLTVDKSSSTAYMELRSLTSEDSAVYYCARRGDYYGNLYYAMDYWGQGTSVTVSS
VL: SIVMTQTPKFLLVSVGDSITITCKASQSVSNDVVWYQQKPGQSPKLLIYYASNRYTGVPDRFTGSGYGTDFTFTITTVQAEDLAVYFCQQDYSSPWAFGGGTKLEIKR
notes: Mouse hybridoma antibody, purified from the culture supernatant of cell line 1B11D2-1; The printed heavy and light chains start with what looks like a leader peptide (MGWSW..., MKSQT...); also called 1B11D2-1 (hybridoma cell line / culture supernatant); TACI antibody (1B11D2)
As to B1, the binding result is recorded as “binds”.

B2: antibody 12C9F3 (antibody, mouse IgG1, kappa, V domains shown)
VH: EVQLQQSGPELVKPGASVKISCKTSGYTFTEYAMHWVKQSHGKSLEWIGGINPNHGGTSNNQKFKGKATLTVDKSSSTAYMDFRSLTSEDSAVYYCARWGTDPFFAYWGQGTLVTVSA
VL: DIVMTQSHKFMSTSVGDRVSITCKASQDVSTAVAWYQQKPGQSPKLLIYWASTRHTGVPDRFTGSGSGTDYTLTITSVQAEDLTLYYCHQHYAPPWTFGGGTKLEIKR
notes: Mouse hybridoma antibody, purified from the culture supernatant of cell line 12C9F3-1; The printed chains seem to include a leader peptide, but no cleavage site is stated; also called 12C9F3-1 (hybridoma cell line / culture supernatant)
In the case of B2, the binding entry is “binds”.
